{"source": "PubChem BioAssay AID1259264 (Sanger Institute, 2017)", "assay": "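Kinase-wide knock-down to find genes that strengthen targeted drug effects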 (primary screen)", "cell system": "CL40 human colorectal cancer cells", "knock-down reagent": "siRNA pool against human genes", "treatment": "DMSO, or an anchor drug: BYL719 at 1 µM, cetuximab at 5 µg/ml, or trametinib at 10 nM", "detection": "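Replicate-mean viability versus a non-targeting pool, robust z-score from control wells, and mean synergy with BYL719 1 µM, cetuximab 5 µg/ml or trametinib 10 nM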", "reading the numbers": "robust z-score, siRNA alone and viability, siRNA alone: higher = more viable cells", "units": "viability, siRNA alone in fraction of control", "active means": "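Essential call: siRNA with no drug reaches a robust z under -3 (low cell count); drug synergy scores do not affect it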", "calls": "active = essential (lowers viability alone); inactive = not essential", "note": "The whole screen tested 794 reagents; below is an unselected part. In the full data, 15 (1.9%) got an active call. 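Calls rest on knock-down alone at z-score below -3; synergy scores with the three drugs do not decide them.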 Viability is capped at 1. Further read-outs or replicates are left out here. The record does not give: the amount of reagent, the time to read-out."}
{"gene symbol": "UCK2 (GeneID 7371)", "robust z-score, siRNA alone": 0.539, "viability, siRNA alone": 1, "call": "inactive"}
{"gene symbol": "PIP4K2A (GeneID 5305)", "robust z-score, siRNA alone": 0.539, "viability, siRNA alone": 1, "call": "inactive"}
{"gene symbol": "EPHB3 (GeneID 2049)", "robust z-score, siRNA alone": 0.539, "viability, siRNA alone": 1, "call": "inactive"}
{"gene symbol": "AK2 (GeneID 204)", "robust z-score, siRNA alone": 0.539, "viability, siRNA alone": 1, "call": "inactive"}
{"gene symbol": "PRKCQ (GeneID 5588)", "robust z-score, siRNA alone": 0.539, "viability, siRNA alone": 1, "call": "inactive"}
{"gene symbol": "PRPS1L1 (GeneID 221823)", "robust z-score, siRNA alone": 0.539, "viability, siRNA alone": 1, "call": "inactive"}
{"gene symbol": "CSNK2A2 (GeneID 1459)", "robust z-score, siRNA alone": 0.539, "viability, siRNA alone": 1, "call": "inactive"}
{"gene symbol": "CAMKK2 (GeneID 10645)", "robust z-score, siRNA alone": 0.539, "viability, siRNA alone": 1, "call": "inactive"}

Look-ups from above:
Under “viability, siRNA alone”, AK2 (GeneID 204) is entered as 1
Entry for PRKCQ (GeneID 5588) in “robust z-score, siRNA alone”: 0.539

Additional records follow:
{"gene symbol": "TESK2 (GeneID 10420)", "robust z-score, siRNA alone": -0.733, "viability, siRNA alone": 0.909, "call": "inactive"}
{"gene symbol": "CHUK (GeneID 1147)", "robust z-score, siRNA alone": -0.00493, "viability, siRNA alone": 0.961, "call": "inactive"}
{"gene symbol": "RPS6KB2 (GeneID 6199)", "robust z-score, siRNA alone": 0.539, "viability, siRNA alone": 1, "call": "inactive"}
{"gene symbol": "IP6K2 (GeneID 51447)", "robust z-score, siRNA alone": 0.539, "viability, siRNA alone": 1, "call": "inactive"}
{"gene symbol": "PRKDC (GeneID 5591)", "robust z-score, siRNA alone": -1.35, "viability, siRNA alone": 0.865, "call": "inactive"}
{"gene symbol": "DSTYK (GeneID 25778)", "robust z-score, siRNA alone": 0.539, "viability, siRNA alone": 1, "call": "inactive"}
{"gene symbol": "GRK7 (GeneID 131890)", "robust z-score, siRNA alone": 0.539, "viability, siRNA alone": 1, "call": "inactive"}
{"gene symbol": "PDGFRA (GeneID 5156)", "robust z-score, siRNA alone": 0.539, "viability, siRNA alone": 1, "call": "inactive"}
{"gene symbol": "BRD4 (GeneID 23476)", "robust z-score, siRNA alone": 0.539, "viability, siRNA alone": 1, "call": "inactive"}
{"gene symbol": "PRKG1 (GeneID 5592)", "robust z-score, siRNA alone": 0.539, "viability, siRNA alone": 1, "call": "inactive"}
{"gene symbol": "FLT1 (GeneID 2321)", "robust z-score, siRNA alone": 0.539, "viability, siRNA alone": 1, "call": "inactive"}
